PubChem BioAssay AID652054 (National Center for Advancing Translational Sciences (NCATS), 2013)
About 9,100 (2.5%) of roughly 360,000 compounds were called active. The inconclusive results got no clear call from the source; some entries with a clear call stand among them for comparison. Cut-off read from the data, not from the text of the source: active = max response below about -50%; inconclusive = no clear call, values can overlap the other calls; inactive = above that.

Chains of the proteins cited; added tags and fusions are not shown.
UniProt P35462, whole entry, looked up: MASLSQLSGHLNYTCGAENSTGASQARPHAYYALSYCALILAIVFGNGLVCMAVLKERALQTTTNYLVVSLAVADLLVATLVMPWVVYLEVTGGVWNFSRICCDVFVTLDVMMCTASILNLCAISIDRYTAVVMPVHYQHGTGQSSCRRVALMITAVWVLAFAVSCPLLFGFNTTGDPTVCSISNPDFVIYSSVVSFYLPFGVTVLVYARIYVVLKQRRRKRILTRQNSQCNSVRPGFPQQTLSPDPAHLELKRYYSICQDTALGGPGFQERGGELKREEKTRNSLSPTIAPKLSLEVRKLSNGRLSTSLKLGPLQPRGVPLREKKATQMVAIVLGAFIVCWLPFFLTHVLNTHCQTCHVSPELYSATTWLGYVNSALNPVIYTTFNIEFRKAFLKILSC

target: D(3) dopamine receptor (Homo sapiens) (UniProt P35462); assay: qHTS of D3 Dopamine Receptor Antagonist: qHTS; settings: D3R cells, DiscoveRx beta-arrestin luminescence, antagonist mode; hits give low values
Procedure, shortened: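 Cells plated overnight at 1500 cells/well, then exposed to library compounds with dopamine controls for 90 minutes at 37 degrees C. DiscoveRx reagent added for 30–60 minutes at room temperature; luminescence read, quantitative HTS format.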
% is set by controls: 0 for no effect and ±100 for the full control effect.

Row | SMILES | max response, negative = inhibition
1 | CCOCCCNC(=O)CN1C(=O)CSc2ccccc21 | inconclusive: -41.1%
2 | CCc1nnc(NC(=O)c2ccc(Br)c(S(=O)(=O)N3CCOCC3)c2)s1 | inactive: -7.93%
3 | CC1(C)Cc2c(sc(NC(=O)COc3cccc4ccccc34)c2C#N)C(C)(C)N1 | inactive: -18.3%
4 | O=S1(=O)c2ccc(Br)cc2N2CCC[C@@H]2CN1Cc1ccccc1 | inconclusive: -30.3%
5 | O=C(CN1CCCCC1)N1N=C(c2cccs2)CC1c1cccs1 (centres undefined) | inconclusive: -34.3%
6 | Cc1cccc(N=Nc2c(C)c(C#N)c(O)[nH]c2=O)c1 | inconclusive: -40%
7 | CCOC(=O)[C@]12CCCC=C1N(CCC1=CCCCC1)C(=O)[C@H](CC(=O)NCCCN1CCCC1=O)C2 | inactive: -13.4%
8 | CCOC(=O)c1c(C)[nH]c(C)c1S(=O)(=O)NCCN1CCN(c2cc(Cl)ccc2C)CC1 | inconclusive: -38%
9 | N#CC1C(C#N)N2CCCN2C1c1ccc(Cl)cc1 (centres undefined) | inconclusive: -37%
10 | CCCCc1c(O)nc(SC2CC(=O)N(c3ccc(C(=O)OCC)cc3)C2=O)[nH]c1=O (centres undefined) | inconclusive: -36.1%
11 | Cc1ccc(OCCN(C)C(=O)c2cc(COc3ccc(F)cc3F)on2)cc1 | inactive: 2.32%
12 | CCOC(=O)c1sc(=S)n(CC)c1NC(=O)C1CC1 | inconclusive: -35.8%
13 | COc1ccc2c(c1)CCc1c(C(=O)N3CCCCCC3)noc1-2 | inconclusive: -41.5%
14 | O=C(NCCCN1CCOCC1)c1ccc(-n2nc(C(F)(F)F)cc2-c2cccs2)cc1 | inconclusive: -39.3%
15 | CCN(CC)S(=O)(=O)c1ccc(C(=O)Nc2nnc(CSC)o2)cc1 | inactive: 1.67%
16 | COc1cc(C(=O)COC(=O)c2ccc([N+](=O)[O-])o2)cc(OC)c1OC | inactive: -24.6%
17 | COC(=O)C(=O)C/C(=N/Nc1ncnc2ccccc12)c1ccc(Cl)cc1 | inconclusive: -35.5%
18 | Oc1c(C(Nc2cccc(C(F)(F)F)c2)c2cccnc2)ccc2cccnc12 (centres undefined) | inconclusive: -35.7%
19 | COc1cccc(NC(=O)[C@H](NC(=O)[C@@H]2Cc3ccccc3CN2)c2ccccc2)c1 | active: -92.1%
20 | O=c1oc2c3c4c(cc2c2c1CCC2)OCCN4CCC3 | inconclusive: -31.2%
21 | Cc1nnc(SC(C)C(=O)Nc2ccc(S(=O)(=O)N3CCCCCC3)cc2)s1 (centres undefined) | inconclusive: -30.1%
22 | CCOc1ccccc1C(=O)OCC(=O)Nc1ncc(C(F)(F)F)cc1Cl | inactive: 29.7%
23 | CC1CCN(S(=O)(=O)c2cn(CC(=O)Nc3cccc(C#N)c3)cn2)CC1 | inconclusive: -37.8%
24 | COc1cccc(NC(=O)c2ccc(CN3CCc4ccccc4C3)cc2)c1 | active: -102%
25 | O=C1C2CCCCN2C(=O)N1CCCCN1CCN(c2ccc(F)cc2)CC1 (centres undefined) | active: -92%
26 | O=C(O)c1cc([N+](=O)[O-])ccc1N1CCC(Cc2ccccc2)CC1 | inconclusive: -30.5%
27 | COCCN1C=C2C(=O)C(C)(OC(=O)C3CCCC3)C(=O)C(c3ccccc3)=C2C=C1CCCC(=O)OC (centres undefined) | inactive: -12.1%

A different layout for 4 compounds above:
Row	SMILES	max response, negative = inhibition
21	Cc1nnc(SC(C)C(=O)Nc2ccc(S(=O)(=O)N3CCCCCC3)cc2)s1 (centres undefined)	inconclusive: -30.1%
22	CCOc1ccccc1C(=O)OCC(=O)Nc1ncc(C(F)(F)F)cc1Cl	inactive: 29.7%
23	CC1CCN(S(=O)(=O)c2cn(CC(=O)Nc3cccc(C#N)c3)cn2)CC1	inconclusive: -37.8%
24	COc1cccc(NC(=O)c2ccc(CN3CCc4ccccc4C3)cc2)c1	active: -102%

Following part

Row | SMILES | max response, negative = inhibition
28 | Brc1ccccc1OCCCCCN1CCOCC1 | inconclusive: -38.2%
29 | CCN1CCC(O)(/C=C/c2ccc(C(C)C)cc2)C(C(=O)/C=C/c2ccc(C(C)C)cc2)C1 (centres undefined) | active: -65.7%
30 | CN(C)c1ccc(CNC(=O)C2(C)Cc3c(-c4ccc5c(c4)OCO5)ccnc3O2)cc1 (centres undefined) | inactive: 0%
31 | Cc1ccc(NC(=O)C(C)N2C(=O)c3ccccc3C2=O)cc1 (centres undefined) | inconclusive: -42.3%
32 | CCN1C(=O)[C@H]2[C@@H](c3ccc(OC)cc3)N[C@]3(CCCN(Cc4cccn4C)C3=O)[C@H]2C1=O | inconclusive: -45%
33 | Cn1nnnc1SCCNC/C=C/c1ccccc1 | inconclusive: -32.7%
34 | O=[N+]([O-])c1ccc(Nc2nc(NCCO)nc(N3CCCC3)n2)cc1 | inactive: -9.87%
35 | COc1ccccc1CN(C)C(=O)CSCC(=O)Nc1ccccc1F | inconclusive: -33.9%
36 | CS(=O)(=O)N(Cc1ccccc1)c1ccc(C(=O)NCCSCc2ccco2)cc1 | inactive: -1.7%
37 | Cc1cccc(Cc2c(C)nc3c(C(=O)NCc4ccco4)cnn3c2C)c1 | inconclusive: -37%
38 | CCN(CC)C(=O)C1c2ccccc2Oc2ccccc21 | inconclusive: -36.5%
39 | COc1ccc(CN2CCNC(=O)C2CC(=O)NCCc2c[nH]c3ccccc23)c(OC)c1 (centres undefined) | inactive: 4.45%
40 | Cc1cc(Nc2ccc(O)cc2)n2c(nc3ccccc32)c1C#N | inconclusive: -41.2%
41 | Cc1nc2c(C(=O)NCc3ccco3)cnn2c(C)c1Cc1ccc(F)cc1Cl | inconclusive: -30.2%
42 | C#Cc1ccc([C@@H]2C=C(C(=O)N3CCN(Cc4ccc5c(c4)OCO5)CC3)O[C@H](OCCCCO)C2)cc1 | inconclusive: -38.1%
43 | CC(C)c1ccc(NC(=O)C(c2ccc3c(c2)OCO3)N2CCC3(CC2)OCCO3)cc1 (centres undefined) | inconclusive: -37.2%
44 | CC(C)(O)C#Cc1ccc(C(=O)N2CCC(CCC(=O)NC3CC3)CC2)cc1 | inconclusive: -32%
45 | Cc1nc(C(=O)NCC(=O)c2ccccc2)c(C(F)(F)F)o1 | active: -58.8%
46 | CS(=O)(=O)N1CCN(CC(=O)NC2CCCCC2)CC1 | inconclusive: -47%
47 | COc1cc(O)c(C(CCN2CCCC(C)C2)c2cc(OC)c(OC)c(OC)c2)c(OC)c1 (centres undefined) | inconclusive: -47.5%
48 | COc1ccccc1-c1cn[nH]c(=S)n1 | inconclusive: -42.8%
49 | Cc1cc(Cl)c(OCCCNC2CCCC2)c(Br)c1 | inconclusive: -45.1%
50 | COc1ccc(OC)c(NC(=O)c2cc(S(=O)(=O)NCc3ccco3)ccc2F)c1 | inconclusive: -37.7%
51 | N/C(=N\OC(=O)Cc1ccccc1)c1ccccc1Cl | inactive: -3.73%
52 | CCO[C@@H]1OC(C(=O)N2CCN(Cc3ccccc3)CC2)=C[C@H](c2ccc(Br)cc2)[C@H]1CCCO | inconclusive: -42.1%
53 | COc1ccccc1NC(=O)CN1CCN(CC(=O)Nc2ccc(OCc3ccccc3)cc2)CC1 | inactive: 22.6%
54 | N#Cc1cccc(NC(=O)c2cc(C3CCCCN3S(=O)(=O)c3ccccc3)on2)c1 (centres undefined) | inconclusive: -37.4%
